# ± gives the standard deviation of the averaged measurements. Some of the results follow.
# Protein sequences, listed by entry. Tags and fused reporters are not part of them. Lines headed by an entry give the natural chain unless they say otherwise; changes in a name come on top.
# UniProt P46199: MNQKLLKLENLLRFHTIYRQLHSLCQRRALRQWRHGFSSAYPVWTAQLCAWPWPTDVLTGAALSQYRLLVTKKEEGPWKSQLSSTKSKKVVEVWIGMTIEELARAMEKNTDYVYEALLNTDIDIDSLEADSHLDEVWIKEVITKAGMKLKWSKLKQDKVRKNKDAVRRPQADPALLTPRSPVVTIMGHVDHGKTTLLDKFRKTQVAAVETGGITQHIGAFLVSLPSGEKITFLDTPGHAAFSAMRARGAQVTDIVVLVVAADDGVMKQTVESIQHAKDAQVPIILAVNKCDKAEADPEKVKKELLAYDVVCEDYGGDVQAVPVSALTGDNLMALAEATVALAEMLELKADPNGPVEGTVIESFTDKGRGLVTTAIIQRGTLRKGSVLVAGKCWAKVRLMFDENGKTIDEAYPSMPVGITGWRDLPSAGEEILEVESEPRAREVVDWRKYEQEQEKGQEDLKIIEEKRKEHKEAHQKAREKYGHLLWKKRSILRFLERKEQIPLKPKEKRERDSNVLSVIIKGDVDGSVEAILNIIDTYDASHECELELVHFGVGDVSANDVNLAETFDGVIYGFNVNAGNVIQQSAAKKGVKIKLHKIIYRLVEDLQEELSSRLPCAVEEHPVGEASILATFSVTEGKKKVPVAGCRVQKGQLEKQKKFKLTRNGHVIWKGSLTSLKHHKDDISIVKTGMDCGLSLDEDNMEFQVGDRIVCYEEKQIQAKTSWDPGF
# UniProt P48506: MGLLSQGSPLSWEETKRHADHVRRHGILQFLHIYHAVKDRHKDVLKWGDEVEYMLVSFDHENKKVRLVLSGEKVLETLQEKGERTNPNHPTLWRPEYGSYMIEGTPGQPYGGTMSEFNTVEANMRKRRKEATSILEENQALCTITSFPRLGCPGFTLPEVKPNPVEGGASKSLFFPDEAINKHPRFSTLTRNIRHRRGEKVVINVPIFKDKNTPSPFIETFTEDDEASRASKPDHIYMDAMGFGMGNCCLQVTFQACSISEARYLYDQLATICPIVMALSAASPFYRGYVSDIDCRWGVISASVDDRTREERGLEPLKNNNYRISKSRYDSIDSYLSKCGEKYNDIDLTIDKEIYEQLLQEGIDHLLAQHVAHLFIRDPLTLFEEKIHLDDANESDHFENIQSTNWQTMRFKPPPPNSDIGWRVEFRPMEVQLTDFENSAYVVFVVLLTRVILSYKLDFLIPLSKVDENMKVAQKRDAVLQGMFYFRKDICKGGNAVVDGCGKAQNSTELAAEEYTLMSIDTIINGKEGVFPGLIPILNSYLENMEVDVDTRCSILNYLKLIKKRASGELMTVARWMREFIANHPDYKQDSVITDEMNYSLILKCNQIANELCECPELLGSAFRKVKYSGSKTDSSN
# UniProt P46736, whole entry: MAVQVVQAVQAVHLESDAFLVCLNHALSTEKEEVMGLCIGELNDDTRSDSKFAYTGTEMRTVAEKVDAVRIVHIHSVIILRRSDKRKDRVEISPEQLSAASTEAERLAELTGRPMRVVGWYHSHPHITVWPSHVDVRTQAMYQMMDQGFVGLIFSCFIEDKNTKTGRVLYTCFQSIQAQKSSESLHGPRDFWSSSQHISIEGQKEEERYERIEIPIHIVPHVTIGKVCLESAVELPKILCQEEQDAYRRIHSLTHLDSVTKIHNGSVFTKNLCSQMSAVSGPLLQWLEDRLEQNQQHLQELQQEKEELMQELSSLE
# UniProt P49754: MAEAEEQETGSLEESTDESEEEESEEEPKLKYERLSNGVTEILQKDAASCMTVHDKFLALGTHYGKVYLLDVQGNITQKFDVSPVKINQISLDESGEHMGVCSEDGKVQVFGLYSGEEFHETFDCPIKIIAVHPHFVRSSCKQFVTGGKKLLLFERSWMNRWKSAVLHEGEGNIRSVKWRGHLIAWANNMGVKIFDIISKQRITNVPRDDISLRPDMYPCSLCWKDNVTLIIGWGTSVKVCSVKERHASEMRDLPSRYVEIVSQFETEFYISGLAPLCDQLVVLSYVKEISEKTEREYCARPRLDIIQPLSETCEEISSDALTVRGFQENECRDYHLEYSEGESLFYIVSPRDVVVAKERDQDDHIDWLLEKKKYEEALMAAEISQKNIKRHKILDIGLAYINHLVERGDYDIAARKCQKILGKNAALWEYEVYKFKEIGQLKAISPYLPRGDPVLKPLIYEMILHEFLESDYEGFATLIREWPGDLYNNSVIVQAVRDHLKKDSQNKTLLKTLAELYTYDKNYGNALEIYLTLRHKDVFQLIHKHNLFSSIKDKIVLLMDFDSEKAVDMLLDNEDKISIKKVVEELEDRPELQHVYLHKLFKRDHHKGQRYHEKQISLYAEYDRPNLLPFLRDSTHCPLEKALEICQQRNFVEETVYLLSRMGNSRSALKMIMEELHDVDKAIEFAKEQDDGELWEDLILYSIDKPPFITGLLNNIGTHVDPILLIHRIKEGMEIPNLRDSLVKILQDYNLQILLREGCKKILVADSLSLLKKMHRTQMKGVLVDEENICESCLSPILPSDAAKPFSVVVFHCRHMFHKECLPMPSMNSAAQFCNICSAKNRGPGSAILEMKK
# UniProt P26885: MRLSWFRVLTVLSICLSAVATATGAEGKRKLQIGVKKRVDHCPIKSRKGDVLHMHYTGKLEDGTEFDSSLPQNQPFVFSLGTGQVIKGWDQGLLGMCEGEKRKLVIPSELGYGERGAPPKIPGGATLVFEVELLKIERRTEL
# UniProt P29016: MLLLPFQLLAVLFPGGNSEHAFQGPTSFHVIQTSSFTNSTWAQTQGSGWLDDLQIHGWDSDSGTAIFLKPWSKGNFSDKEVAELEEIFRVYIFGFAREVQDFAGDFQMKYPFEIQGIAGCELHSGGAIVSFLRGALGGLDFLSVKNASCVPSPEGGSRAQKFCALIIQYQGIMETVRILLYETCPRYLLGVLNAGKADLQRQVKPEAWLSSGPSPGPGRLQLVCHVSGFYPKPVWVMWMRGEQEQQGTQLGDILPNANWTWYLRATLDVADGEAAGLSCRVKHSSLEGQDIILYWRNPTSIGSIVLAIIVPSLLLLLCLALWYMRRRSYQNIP
# UniProt P38398, whole entry, looked up: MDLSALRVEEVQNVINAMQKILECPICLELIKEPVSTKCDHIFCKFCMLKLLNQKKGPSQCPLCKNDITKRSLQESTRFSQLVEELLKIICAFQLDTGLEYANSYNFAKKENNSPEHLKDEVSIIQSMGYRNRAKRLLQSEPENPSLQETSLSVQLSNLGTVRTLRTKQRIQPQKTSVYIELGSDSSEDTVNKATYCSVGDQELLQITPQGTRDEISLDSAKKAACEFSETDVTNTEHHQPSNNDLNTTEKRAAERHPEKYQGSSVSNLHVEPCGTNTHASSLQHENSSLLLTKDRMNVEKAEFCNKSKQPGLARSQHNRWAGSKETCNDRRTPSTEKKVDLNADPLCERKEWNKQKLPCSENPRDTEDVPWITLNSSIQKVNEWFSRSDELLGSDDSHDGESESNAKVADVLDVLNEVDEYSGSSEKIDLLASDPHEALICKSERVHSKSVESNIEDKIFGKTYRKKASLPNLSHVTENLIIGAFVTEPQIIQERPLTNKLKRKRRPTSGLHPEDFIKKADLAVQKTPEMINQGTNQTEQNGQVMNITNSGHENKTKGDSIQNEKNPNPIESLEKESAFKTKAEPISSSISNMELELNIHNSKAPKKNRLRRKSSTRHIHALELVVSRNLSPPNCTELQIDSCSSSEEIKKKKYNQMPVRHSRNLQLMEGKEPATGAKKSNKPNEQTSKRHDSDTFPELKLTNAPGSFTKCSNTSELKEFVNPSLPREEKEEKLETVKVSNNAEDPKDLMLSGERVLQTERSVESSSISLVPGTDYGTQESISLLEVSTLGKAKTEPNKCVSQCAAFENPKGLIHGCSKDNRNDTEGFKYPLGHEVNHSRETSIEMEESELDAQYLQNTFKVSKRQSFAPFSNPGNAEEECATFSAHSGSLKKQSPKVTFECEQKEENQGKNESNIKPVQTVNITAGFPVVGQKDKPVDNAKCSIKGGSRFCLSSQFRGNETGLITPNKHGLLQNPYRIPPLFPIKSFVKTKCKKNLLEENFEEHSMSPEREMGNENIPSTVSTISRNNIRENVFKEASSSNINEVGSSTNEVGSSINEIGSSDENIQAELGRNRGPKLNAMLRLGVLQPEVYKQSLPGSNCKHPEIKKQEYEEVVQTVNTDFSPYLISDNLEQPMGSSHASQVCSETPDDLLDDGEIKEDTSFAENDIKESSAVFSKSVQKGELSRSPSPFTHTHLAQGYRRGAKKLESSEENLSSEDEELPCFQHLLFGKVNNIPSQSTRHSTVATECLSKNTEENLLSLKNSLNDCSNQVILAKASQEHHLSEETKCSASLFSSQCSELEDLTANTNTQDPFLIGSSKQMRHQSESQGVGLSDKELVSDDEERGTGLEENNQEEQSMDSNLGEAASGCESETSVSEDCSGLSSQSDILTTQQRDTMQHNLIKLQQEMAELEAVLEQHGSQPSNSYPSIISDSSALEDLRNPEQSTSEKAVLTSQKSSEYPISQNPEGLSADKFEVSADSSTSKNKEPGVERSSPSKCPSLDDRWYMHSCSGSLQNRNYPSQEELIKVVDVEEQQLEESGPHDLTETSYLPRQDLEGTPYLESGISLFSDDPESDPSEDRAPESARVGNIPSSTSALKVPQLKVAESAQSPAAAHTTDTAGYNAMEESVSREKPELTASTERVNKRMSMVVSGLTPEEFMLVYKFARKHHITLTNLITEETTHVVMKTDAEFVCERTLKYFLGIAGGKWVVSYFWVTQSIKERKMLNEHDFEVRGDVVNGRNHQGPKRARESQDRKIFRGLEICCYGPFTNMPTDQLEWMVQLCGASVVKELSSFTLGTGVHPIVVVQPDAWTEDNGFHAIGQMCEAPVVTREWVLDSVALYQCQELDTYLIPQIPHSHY
# UniProt P27694, whole entry: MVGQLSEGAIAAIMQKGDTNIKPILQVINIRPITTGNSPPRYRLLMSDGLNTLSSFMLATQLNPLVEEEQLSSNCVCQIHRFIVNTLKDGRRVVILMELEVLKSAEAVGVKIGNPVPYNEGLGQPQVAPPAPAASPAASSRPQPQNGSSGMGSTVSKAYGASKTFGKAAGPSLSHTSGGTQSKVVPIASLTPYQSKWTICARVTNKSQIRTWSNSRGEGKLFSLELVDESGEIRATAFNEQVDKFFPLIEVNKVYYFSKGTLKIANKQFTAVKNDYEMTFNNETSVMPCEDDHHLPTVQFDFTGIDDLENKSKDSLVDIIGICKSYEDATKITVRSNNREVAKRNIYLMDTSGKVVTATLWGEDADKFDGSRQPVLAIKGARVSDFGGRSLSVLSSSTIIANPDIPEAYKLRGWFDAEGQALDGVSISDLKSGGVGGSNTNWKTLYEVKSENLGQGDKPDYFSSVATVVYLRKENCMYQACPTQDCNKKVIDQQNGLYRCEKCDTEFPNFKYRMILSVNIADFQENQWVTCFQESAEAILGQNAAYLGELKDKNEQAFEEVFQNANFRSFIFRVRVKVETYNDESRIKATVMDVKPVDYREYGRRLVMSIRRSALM
# UniProt P49902: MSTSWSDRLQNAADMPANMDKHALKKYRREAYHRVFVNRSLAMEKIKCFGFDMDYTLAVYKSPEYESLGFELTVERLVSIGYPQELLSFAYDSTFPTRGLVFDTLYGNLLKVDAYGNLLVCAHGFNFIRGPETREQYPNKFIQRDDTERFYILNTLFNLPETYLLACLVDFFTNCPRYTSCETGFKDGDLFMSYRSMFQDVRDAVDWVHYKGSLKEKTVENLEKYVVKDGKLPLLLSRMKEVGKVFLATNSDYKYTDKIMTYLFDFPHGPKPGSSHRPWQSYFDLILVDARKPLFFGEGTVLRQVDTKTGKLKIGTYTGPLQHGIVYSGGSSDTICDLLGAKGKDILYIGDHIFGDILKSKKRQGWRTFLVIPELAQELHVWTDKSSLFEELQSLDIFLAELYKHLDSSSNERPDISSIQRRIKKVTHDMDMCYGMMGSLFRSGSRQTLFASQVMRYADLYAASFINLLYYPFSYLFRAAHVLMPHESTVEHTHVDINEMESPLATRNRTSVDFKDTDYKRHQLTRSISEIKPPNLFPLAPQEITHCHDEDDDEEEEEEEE
# UniProt P40222: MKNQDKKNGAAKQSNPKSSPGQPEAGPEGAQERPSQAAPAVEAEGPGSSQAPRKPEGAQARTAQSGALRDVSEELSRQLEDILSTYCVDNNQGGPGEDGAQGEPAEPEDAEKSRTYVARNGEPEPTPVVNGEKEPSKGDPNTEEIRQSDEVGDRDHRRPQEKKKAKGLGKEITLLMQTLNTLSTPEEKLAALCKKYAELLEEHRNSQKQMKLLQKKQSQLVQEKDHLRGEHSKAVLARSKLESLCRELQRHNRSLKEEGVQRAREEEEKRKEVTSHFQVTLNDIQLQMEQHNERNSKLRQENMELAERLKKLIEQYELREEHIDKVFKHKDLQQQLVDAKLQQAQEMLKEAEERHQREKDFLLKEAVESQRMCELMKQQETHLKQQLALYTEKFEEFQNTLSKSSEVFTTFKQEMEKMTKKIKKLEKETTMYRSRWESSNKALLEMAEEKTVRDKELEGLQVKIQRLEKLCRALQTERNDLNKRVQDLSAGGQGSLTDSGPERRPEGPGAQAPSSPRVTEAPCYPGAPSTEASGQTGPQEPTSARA
# Compound: Nc1nc2c(ncn2[C@@H]2O[C@H](COP(=O)(O)OP(=O)(O)OP(=O)(O)O)[C@@H](O)[C@H]2O)c(=O)[nH]1 [guanosine triphosphate]
# Assay: NP40-soluble protein abundance relative to vehicle (solubility fold change) (ratio); higher = more soluble protein in presence of GTP
# How it was run: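 Values are fold changes against the detergent-processed vehicle, based on vsn-normalised intensities. Jurkat crude lysate was treated at eight concentrations from 0.1 to 10 mM (10 min at room temperature, then 3 min at 37 °C), solubilised with 0.8% NP40 and benzonase, ultracentrifuged and analysed by TMT-labelled LC-MS/MS over three independent experiments.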
Target,NP40-soluble protein abundance (concentration: 0.1mM),NP40-soluble protein abundance (concentration: 0.5mM),NP40-soluble protein abundance (concentration: 1mM),NP40-soluble protein abundance (concentration: 2mM),NP40-soluble protein abundance (concentration: 4mM),NP40-soluble protein abundance (concentration: 6mM),NP40-soluble protein abundance (concentration: 8mM),NP40-soluble protein abundance (concentration: 10mM)
UniProt P48634 and related entries,1.07 ± 0.034,1.06 ± 0.0091,1.19 ± 0.1,1.27 ± 0.03,1.42 ± 0.062,1.52 ± 0.096,1.7 ± 0.19,1.84 ± 0.28
MTIF2 (UniProt P46199),1.04 ± 0.038,1.08 ± 0.12,1 ± 0.087,1.05 ± 0.022,0.975 ± 0.067,0.949 ± 0.052,0.925 ± 0.032,0.937 ± 0.037
UniProt P41250,1 ± 0.019,1.012 ± 0.0078,0.963 ± 0.022,0.918 ± 0.026,0.899 ± 0.036,0.923 ± 0.036,0.901 ± 0.041,0.868 ± 0.052
GCLC (UniProt P48506),1.01 ± 0.034,1.06 ± 0.023,0.967 ± 0.037,0.948 ± 0.068,0.912 ± 0.08,0.951 ± 0.04,0.931 ± 0.037,0.894 ± 0.081
PTDSS1 (UniProt P48651),1.16 ± 0.25,1.16 ± 0.29,1.16 ± 0.21,1.38 ± 0.3,1.54 ± 0.37,1.54 ± 0.44,1.62 ± 0.39,1.64 ± 0.35
CCT3 (UniProt P49368),0.995 ± 0.03,1.07 ± 0.1,1.08 ± 0.18,1.1 ± 0.24,1.11 ± 0.24,1.06 ± 0.22,1.08 ± 0.21,1.05 ± 0.23
UniProt P46736 and related entries,1.04 ± 0.029,1.02 ± 0.049,0.99 ± 0.018,0.989 ± 0.052,0.972 ± 0.021,0.957 ± 0.021,0.992 ± 0.015,0.959 ± 0.051
PSMB5 (UniProt P28074),1.01 ± 0.12,1.09 ± 0.23,0.916 ± 0.17,1.08 ± 0.29,1.15 ± 0.33,1.05 ± 0.35,0.945 ± 0.14,0.99 ± 0.15
MTOR (UniProt P42345),1.12 ± 0.079,1.07 ± 0.072,1.02 ± 0.062,1.03 ± 0.12,1.04 ± 0.061,0.986 ± 0.067,1.01 ± 0.049,0.917 ± 0.071
RPL35 (UniProt P42766),0.956 ± 0.073,0.957 ± 0.029,1.05 ± 0.066,1.03 ± 0.05,1.01 ± 0.16,0.967 ± 0.14,0.564 ± 0.024,1.09 ± 0.21
UniProt P49754 and related entries,1 ± 0.12,1 ± 0.13,0.912 ± 0.058,1.03 ± 0.16,0.914 ± 0.28,0.942 ± 0.2,0.992 ± 0.2,0.986 ± 0.21
FKBP2 (UniProt P26885),0.904 ± 0.018,0.873 ± 0.072,1 ± 0.069,0.954 ± 0.063,0.902 ± 0.11,0.918 ± 0.09,0.858 ± 0.12,0.915 ± 0.084
UniProt P29016 and related entries,0.9 ± 0.021,0.868 ± 0.057,0.871 ± 0.14,0.793 ± 0.058,0.847 ± 0.016,0.848 ± 0.022,0.802 ± 0.04,0.871 ± 0.045
UniProt P28907,0.92 ± 0.058,0.876 ± 0.075,0.927 ± 0.063,0.902 ± 0.091,0.891 ± 0.088,0.925 ± 0.088,0.895 ± 0.1,0.894 ± 0.058
UniProt P29353 and related entries,1.04 ± 0.043,1.03 ± 0.049,0.977 ± 0.09,0.978 ± 0.05,1.01 ± 0.048,0.989 ± 0.048,1.03 ± 0.059,0.944 ± 0.05
UniProt P32019 and related entries,1.12 ± 0.071,0.933 ± 0.018,0.9946 ± 0.0049,0.932 ± 0.066,0.949 ± 0.024,0.888 ± 0.022,0.889 ± 0.0091,0.8541 ± 0.0082
SPR (UniProt P35270),0.974 ± 0.075,0.956 ± 0.06,0.922 ± 0.051,0.912 ± 0.04,0.938 ± 0.068,0.862 ± 0.035,0.897 ± 0.055,0.893 ± 0.06
CA8 (UniProt P35219),1.04 ± 0.017,1.01 ± 0.035,0.914 ± 0.029,0.934 ± 0.061,0.915 ± 0.064,0.879 ± 0.048,0.879 ± 0.072,0.874 ± 0.11
UniProt P49757 and related entries,1.08 ± 0.034,1.1 ± 0.02,1.11 ± 0.027,1.1 ± 0.08,1.08 ± 0.031,1.09 ± 0.036,1.1 ± 0.03,1.1 ± 0.093
UniProt P36402-5,0.999 ± 0.14,0.942 ± 0.087,1.13 ± 0.28,1.14 ± 0.16,1.1 ± 0.15,1.14 ± 0.16,1.16 ± 0.16,1.29 ± 0.25
UniProt P38398 and related entries,0.971 ± 0.076,0.984 ± 0.061,0.977 ± 0.077,0.998 ± 0.081,0.931 ± 0.079,1.02 ± 0.096,1.01 ± 0.069,1.04 ± 0.12
UniProt P36542 and related entries,1 ± 0.016,1.04 ± 0.058,0.982 ± 0.05,0.986 ± 0.096,0.985 ± 0.096,1.01 ± 0.11,0.974 ± 0.086,0.922 ± 0.069
RPA1 (UniProt P27694),0.994 ± 0.025,1.02 ± 0.04,0.938 ± 0.025,0.946 ± 0.036,0.927 ± 0.026,0.939 ± 0.025,0.9162 ± 0.0083,0.9 ± 0.043
UniProt P49902 and related entries,1.06 ± 0.13,1.09 ± 0.16,0.92 ± 0.054,0.963 ± 0.22,0.96 ± 0.14,0.932 ± 0.13,0.872 ± 0.099,0.853 ± 0.16
UniProt P28838 and related entries,0.976 ± 0.034,0.991 ± 0.06,0.957 ± 0.043,0.934 ± 0.04,0.924 ± 0.043,0.935 ± 0.056,0.915 ± 0.052,0.887 ± 0.036
TXLNA (UniProt P40222),0.955 ± 0.021,0.9 ± 0.039,1.07 ± 0.064,1.07 ± 0.1,1.12 ± 0.12,1.2 ± 0.17,1.12 ± 0.21,1.37 ± 0.26
UniProt P48047,0.825 ± 0.17,0.839 ± 0.14,1.02 ± 0.21,1.07 ± 0.2,1.04 ± 0.17,1.07 ± 0.22,0.921 ± 0.17,1.06 ± 0.22
MCM4 (UniProt P33991),0.995 ± 0.02,1.04 ± 0.047,1 ± 0.061,1 ± 0.084,1.01 ± 0.096,1.01 ± 0.11,1.01 ± 0.099,0.962 ± 0.081
UniProt P49796 and related entries,0.893 ± 0.075,0.87 ± 0.13,0.908 ± 0.13,0.872 ± 0.13,0.832 ± 0.085,0.864 ± 0.087,0.851 ± 0.096,0.92 ± 0.18
P28062 and related entries (UniProt X5D2R7+P28062),0.939 ± 0.033,0.98 ± 0.076,0.944 ± 0.13,1.01 ± 0.16,1.01 ± 0.18,1.02 ± 0.21,0.983 ± 0.12,0.97 ± 0.14

# 5 entries from above, tab-delimited:
Target	NP40-soluble protein abundance (concentration: 0.1mM)	NP40-soluble protein abundance (concentration: 0.5mM)	NP40-soluble protein abundance (concentration: 1mM)	NP40-soluble protein abundance (concentration: 2mM)	NP40-soluble protein abundance (concentration: 4mM)	NP40-soluble protein abundance (concentration: 6mM)	NP40-soluble protein abundance (concentration: 8mM)	NP40-soluble protein abundance (concentration: 10mM)
MTIF2 (UniProt P46199)	1.04 ± 0.038	1.08 ± 0.12	1 ± 0.087	1.05 ± 0.022	0.975 ± 0.067	0.949 ± 0.052	0.925 ± 0.032	0.937 ± 0.037
UniProt P41250	1 ± 0.019	1.012 ± 0.0078	0.963 ± 0.022	0.918 ± 0.026	0.899 ± 0.036	0.923 ± 0.036	0.901 ± 0.041	0.868 ± 0.052
UniProt P49754 and related entries	1 ± 0.12	1 ± 0.13	0.912 ± 0.058	1.03 ± 0.16	0.914 ± 0.28	0.942 ± 0.2	0.992 ± 0.2	0.986 ± 0.21
CA8 (UniProt P35219)	1.04 ± 0.017	1.01 ± 0.035	0.914 ± 0.029	0.934 ± 0.061	0.915 ± 0.064	0.879 ± 0.048	0.879 ± 0.072	0.874 ± 0.11
UniProt P28838 and related entries	0.976 ± 0.034	0.991 ± 0.06	0.957 ± 0.043	0.934 ± 0.04	0.924 ± 0.043	0.935 ± 0.056	0.915 ± 0.052	0.887 ± 0.036

# Reference: the supplement of paper PMC6411743
